Test results: PubChem BioAssay AID602313 (National Center for Advancing Translational Sciences (NCATS), 2012)
Screen size: about 390,000 compounds; about 760 (0.19%) were called active. Inconclusive results, whose numbers are uncertain, are shown with a selection of clear calls. Calls follow the shape of the dose curve; as a rule, active = well fitted inhibition curve with a large enough effect; inconclusive = small, poorly fitted or top-dose-only effect; inactive = flat fitted curve, though single readings scatter. Where the call is inconclusive, the potency comes from a doubtful curve fit.

Experiment: qHTS for Inhibitors of Vif-A3F Interactions: qHTS; also: nearly all actives have a fitted effect of over 65% in size; as to activity, negative = active: % of control where 0% means no effect
Conditions: HeLa A3F-eYFP + Vif (tagged APOBEC3F with the HIV-1 protein that degrades it), YFP fluorescence increase; series mostly up to 46.1 µM; activity, negative = active: at the top concentration
How it was run: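 HeLa cells stably expressing A3F-eYFP plus Vif, plated and incubated overnight at 37 deg C, then exposed to compounds overnight at 37 deg C. Blocked degradation read as raised yellow fluorescence (Ex 488/Em 500-530).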
Potency is read from the fitted curve at half-maximal effect.

SMILES | Potency | activity, negative = active
CCOC(=O)/C(C#N)=C(C)/C=C1\Sc2ccccc2N1CC | inconclusive: 10 µM [inhibitor, partial curve, poor fit] | 
COc1ccc(S(=O)(=O)N2CCc3ccccc32)cc1NC(C)=O |  | inactive: 11.4%
Cc1cc2oc(=O)cc(CN3CCN(S(=O)(=O)c4cccs4)CC3)c2cc1C(C)C | inconclusive: 6.31 µM [inhibitor, single point] | 
Cc1cc(C)c(NC(=O)CN2C(=O)c3cccnc3Oc3ccc(Cl)cc32)c(C)c1 | inconclusive: 35.5 µM [inhibitor, single point] | 
NS(=O)(=O)c1ccc(CCNC(=O)c2ccc([N+](=O)[O-])s2)cc1 | inconclusive: 6.31 µM [inhibitor, single point] | 
Cc1cc(Nc2ccc(C)c(Cl)c2)n2nc(-c3ccccc3)nc2n1 | inconclusive: 4.47 µM [inhibitor, single point] | 
O=C(Cn1nnc(-c2ccccc2)n1)N=Nc1c(O)[nH]c2ccccc12 |  | inactive: 1.52%
CC(C)(CNC(=O)c1cc([N+](=O)[O-])ccc1N1CCC(Cc2ccccc2)CC1)N1CCOCC1 |  | inactive: 1.12%
Cc1ccc(C(=O)NCCn2c(N)c(C#N)c3nc4ccccc4nc32)cc1 | active: 22.4 µM | 
C=CCn1c(C)csc1=Nc1ccc(C(=O)O)cc1 | inconclusive: 35.5 µM [inhibitor, single point] | 
COc1ccccc1/C=C(\C#N)c1nc(-c2cc3ccccc3oc2=O)cs1 |  | inactive: -9.98%
O=C(Nc1nnc(C2=COCCO2)o1)c1cccc(F)c1 | inconclusive: 22.4 µM [inhibitor, partial curve, poor fit] | 
COc1ccccc1-c1c(C)nn2c(N)c(-c3ccccc3)cnc12 | inconclusive: 3.55 µM [inhibitor, single point] | 
O=C(N/N=C/C(Cl)=C\c1ccccc1)c1ccco1 | inconclusive: 22.4 µM [inhibitor, single point] | 
Cn1c(=O)c2c(-c3ccccc3)n3c(c2n(C)c1=O)C(c1cc(Cl)ccc1O)Nc1ccccc1-3 (configuration not stated) |  | inactive: 0.119%
Cc1ccc(NC(=S)/C(=C(\[O-])c2ccc(F)cc2)[n+]2ccccc2)cc1 | inconclusive: 35.5 µM [inhibitor, single point] | 
Cc1cc(C(=O)Nn2c(C)nc3ccccc3c2=O)ccc1[N+](=O)[O-] | inconclusive: 14.1 µM [inhibitor, partial curve, poor fit] | 
COCCn1c(=NC(=O)c2sc3ccccc3c2Cl)sc2cc(S(N)(=O)=O)ccc21 | inconclusive: 35.5 µM [inhibitor, single point] | 
O=C(CSc1nc(Nc2ccc(F)c(F)c2)c2ccccc2n1)c1ccc(Cl)cc1 | inconclusive: 12.6 µM [inhibitor, single point] | 
Cc1sc2ncnc(NCc3cccnc3)c2c1C | inconclusive: 2.51 µM [inhibitor, partial curve, poor fit] | 
CC(NC(=O)C1c2ccccc2Oc2ccccc21)C1CCCO1 (configuration not stated) | inconclusive: 6.31 µM [inhibitor, single point] | 

Filtered by structure, the compounds so far containing four or more nitrogen atoms.
SMILES | Potency | activity, negative = active
Cc1cc(Nc2ccc(C)c(Cl)c2)n2nc(-c3ccccc3)nc2n1 | inconclusive: 4.47 µM [inhibitor, single point] | 
O=C(Cn1nnc(-c2ccccc2)n1)N=Nc1c(O)[nH]c2ccccc12 |  | inactive: 1.52%
CC(C)(CNC(=O)c1cc([N+](=O)[O-])ccc1N1CCC(Cc2ccccc2)CC1)N1CCOCC1 |  | inactive: 1.12%
Cc1ccc(C(=O)NCCn2c(N)c(C#N)c3nc4ccccc4nc32)cc1 | active: 22.4 µM | 
COc1ccccc1-c1c(C)nn2c(N)c(-c3ccccc3)cnc12 | inconclusive: 3.55 µM [inhibitor, single point] | 
Cn1c(=O)c2c(-c3ccccc3)n3c(c2n(C)c1=O)C(c1cc(Cl)ccc1O)Nc1ccccc1-3 (configuration not stated) |  | inactive: 0.119%
Cc1cc(C(=O)Nn2c(C)nc3ccccc3c2=O)ccc1[N+](=O)[O-] | inconclusive: 14.1 µM [inhibitor, partial curve, poor fit] | 
Cc1sc2ncnc(NCc3cccnc3)c2c1C | inconclusive: 2.51 µM [inhibitor, partial curve, poor fit] | 

The results go on:

SMILES | Potency | activity, negative = active
O=[N+]([O-])c1cccc(S(=O)(=O)c2ccc(NCCO)c([N+](=O)[O-])c2)c1 |  | inactive: 1.71%
O=Cc1sc(=O)n(Cc2cccc(C(=O)O)c2)c1Cl | inconclusive: 10 µM [inhibitor, partial curve, poor fit] | 
COc1ccc(NC(=O)COC(=O)CC2CCCC2)cc1 | inconclusive: 6.31 µM [inhibitor, single point] | 
Cc1ccc(S(=O)(=O)N2CCOCC2)cc1NC(=O)Cn1nc(C)c([N+](=O)[O-])c1C | inconclusive: 1.26 µM [inhibitor, partial curve, poor fit] | 
c1ccc(Oc2nc(-c3ccccn3)nc3ccccc23)cc1 | inconclusive: 3.16 µM [inhibitor, partial curve, poor fit] | 
CC1(C)COC(c2ccccc2Cl)OC1 | inconclusive: 2.82 µM [inhibitor, single point] | 
CC(C)(C)c1ccc(-c2nnc(-c3ccccc3NC(=O)c3cccc(C(F)(F)F)c3)o2)cc1 |  | inactive: -4.46%
c1ccc(-c2nnc3sc(-c4ccncc4)nn23)cc1 |  | inactive: -6.08%
O=C(O)c1cccc2c1C(=O)c1cccc3snc-2c13 | inconclusive: 5.62 µM [inhibitor, single point] | 
CCCN1C(=O)C(Cc2nc3ccccc3c(=O)n2CC)c2cc(Br)ccc21 (configuration not stated) | inconclusive: 12.6 µM [inhibitor, partial curve] | 
Cc1ccc(S(=O)(=O)N/N=C\c2ccc([N+](=O)[O-])o2)cc1C | inconclusive: 31.6 µM [inhibitor, single point] | 
OC(CCN1CC2CCC(CC2)C1)(Cc1ccccc1)c1ccco1 (configuration not stated) | inconclusive: 35.5 µM [inhibitor, single point] | 
C=CCn1c(SCc2nc3ccccc3nc2C)nnc1-c1ccoc1C | inconclusive: 5.62 µM [inhibitor, single point] | 
Oc1c(CN2CCCCC2)cc(COCc2ccccc2)c2cccnc12 | inconclusive: 5.62 µM [inhibitor, single point] | 
CCOC(=O)C1(Cc2ccc(Cl)cc2)CCN(Cc2nccn2CC)CC1 | inconclusive: 35.5 µM [inhibitor, single point] | 
Cc1cccc(C)c1Nc1nnc(SCC(=O)Nc2ncc(C(F)(F)F)cc2Cl)s1 | inconclusive: 0.355 µM [inhibitor, full curve, poor fit] | 
CCOP(=O)(OCC)C(NC(=O)c1cccs1)C(F)(F)F (configuration not stated) | inconclusive: 35.5 µM [inhibitor, single point] | 
CCN(CC)CCNc1ccc(CO)c2oc3cc(Cl)ccc3c(=O)c12 | inconclusive: 35.5 µM [inhibitor, single point] | 
N#Cc1cccn1-c1nccc(-c2cccs2)n1 | inconclusive: 20 µM [inhibitor, partial curve, poor fit] | 
Cc1cc(SCC(=O)Nc2ccc(F)cc2F)nc(=O)[nH]1 | inconclusive: 22.4 µM [inhibitor, single point] | 
CC(C)c1ccc(/C=C/C(=O)Nc2nc3ccc([N+](=O)[O-])cc3s2)cc1 |  | inactive: -1.44%
